These are yes or no findings as the source states them, for the method shown. In cells and extracts the contact can be indirect. Here binding means that the protein was enriched with, or labelled near, the bait; the list need not be complete. No binding means not detected with the bait.

In this assay the target is T1, REVEILLE 8 (RVE8)-HFC (Arabidopsis thaliana) (UniProt Q8RWU3).
T1 sequence: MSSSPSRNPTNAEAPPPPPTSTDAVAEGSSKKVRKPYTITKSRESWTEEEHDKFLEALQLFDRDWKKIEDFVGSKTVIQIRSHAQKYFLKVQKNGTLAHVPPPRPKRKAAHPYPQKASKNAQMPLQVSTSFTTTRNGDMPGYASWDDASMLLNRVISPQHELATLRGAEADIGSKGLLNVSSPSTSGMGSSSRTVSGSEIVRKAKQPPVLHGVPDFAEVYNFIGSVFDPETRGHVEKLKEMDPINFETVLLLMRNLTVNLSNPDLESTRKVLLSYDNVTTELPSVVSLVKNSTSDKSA
Nature of the assay: affinity purification with mass spectrometry; HFC-tagged bait (RVE8-, LNK1- or LNK2-HFC) from extracts of 10-d-old Arabidopsis seedlings (12 h light:12 h dark, 22 °C) harvested at ZT5; FLAG-M2 beads, 3x-FLAG peptide elution, then His-tag beads; LC-MS/MS; hits found in GFP-HFC or Col-0 controls excluded.

B1: SUPPRESSOR OF PHYA-105 (SPA1) (protein, UniProt Q9SYX2 1-1029)
chain: MPVMERVAEETVATNNIQLKARVDDVPCNKLDARHNDMVIQSETANSDCPGSSAHRNVDLTKPPPPEEAAGAKLSVEELTLGNYRIVQGSNNTNVDSPRAGKFEHLYRLARGSAFRAGDGDLDSQPRDMDQMLSRIRQQLAGAPSERQNLKPFMSRRSDQNLEAFSERLRAAGENSIMNAPALISEGVQMKTPVSSSNFSQLLLKRAMKGKGVVGKNQETPPEFVSDQDLGSKEKKLDISKSPTPHDVLPLKSSPKGNGMVSHGDGNHSKSSIGISLREFLRSSYAKREKRHGLCLFRQLVELVDSAHSKRLFLLDLRPSLFTLVPSKKLRYIGNFGKNDLESDVDEDLNRRRPVVEESSSGGRDSKKRKMDLHLNSPGNQLQATSTGRPFKRKSPVIDLNMVDARNPDSCELQQQDYIKNLSVSSVSRKQSMSTWLEEQWYTCPEEINGEDIGEKSNIYALGVLLFELLCHCESGEMHAAMMADLRHRILPPTFLSKYPKEAGFCLWLLHPEPSSRPSARDILKSELICEDDSVKSTAAAEEISELLLHFLSSLEVQKKKKASKLLQDIQTLEDDIKEAERRYSSNVSLVRSHGAIEKRVQSSPLDEHCTTSSALFVPTANTDRLMSNIRQLEDAYFFMRSQINLSSSAATARSDKTLKDRDRCSENQNENQDMSTKGKSSDQLEVFFEGLCKFARYSKFETCGTIRSGDLLNSASVVCSLSFDPDEEHIAAAGISKKIKIFDFNAFMNESVGVHYPLVEMVNKSKLSCVCWNSYIKNYLASTDYDGVVQIWDAGTGQGFSQYTEHQKRAWSVDFSPSDPTKFVSGSDDCSVKLWSINEKRSLGTIWSPANVCCVQFSSYSNHLLAFGSADYKVYCYDLRYVKTPWCTLAGHEKAVSYVKFMDSETIVSASTDNSLKLWNLNKTNSSGLSPGACSLTYKGHTNQKNFVGLSVLDGYIACGSETNEVYSYYKSLPMPMTSYKFGSVDPISGNEYFDDNGQFVSSVCWRKKSNMLVAANSTGNMKLLKLV
As for B1, the binding entry was “no binding (only tissue harvested at ZT5)”.
